Earlier results in patent US20210196674A1, “Therapeutics for Malaria” (priority 2015, published 2021).
Some of these results come from one statement about several compounds together.

Conditions: cited from earlier work

## CO[C@H]1O[C@@H]2O[C@@]3(C)CC[C@H]4[C@H](C)CC[C@@H]([C@H]1C)[C@@]24OO3 [artemether]
Taken intramuscularly
  half-life: 7 to 9 h
Taken orally
  half-life in the blood: 1 to 2 h
